Earlier results as cited in patent US6579851B2, “Effects of glucagon-like peptide-1 (7-36) on antro-pyloro-duodenal motility” (Amylin Pharmaceuticals, Inc., priority 2000, dated 2003).
Some entries share one result that the patent states for a list of compounds.

Conditions: cited from earlier work

Question: For GLP-1(7-37), which Half-life in situ is on record?
Answer: less than 10 minutes
